For at least one compound, name, drawing or mass did not settle the structure.
System: α1-GABAA receptor
Assay: Ligand-binding assay, competitive with radiolabeled flumazenil, cerebellum membranes
Details: Affinity for α1-GABAA receptor, rat cerebellum membranes, radiolabeled flumazenil 1 nM
Method: Ligand-binding assays. Determination of the affinity of test compounds for α1- and α2-GABAA receptor.
Male Sprague-Dawley rats weighing 200-250 g at the time of experiment were used. After decapitation of the animal, the cerebellum (tissue that mostly contains α1-GABAA receptor) and spinal cord (tissue that mostly contains α2-GABAA receptor) were removed. The membranes were prepared according to the method by J. Lameh et al. (Prog. Neuro-Psychopharmacol. Biol. Psychiatry, 24, 979-991, 2000) and H. Noguchi et al. (Eur. J. Pharm., 434, 21-28, 2002). Once the tissues weighed, they were suspended in 50 mM Tris.HCl (pH 7.4), 1:40 (w/v), or sucrose 0.32 M in the case of spinal cord, homogenized and then centrifuged at 20,000 g for 10 min at 7° C. twice. […]
Affinity was determined by competitive tests using radiolabeled flumazenil as ligand. […] The next day the plates were counted using a Perkin-Elmer Microbeta scintillation counter.
For analysis of the results the percentage of specific binding for every concentration of test compound was calculated as follows: […]
Every concentrations of compound were tested in triplicate and their mean values were used to determine the experimental values of % specific binding versus the concentration of compound. Affinity data are expressed as % inhibition at 10^-5M and 10^-7M concentrations.

## Cc1ccc(-c2nc3ccc(C)cn3c2CNC(=O)c2cc(F)c(Cl)cc2Cl)cc1 [Example 87, 2,4-Dichloro-5-fluoro-N-(6-methyl-2-p-tolyl-imidazo[1,2-a]pyridin-3-ylmethyl)-benzamide]
10^-5M test compound
  % Inhibition 10^−5M: 72.2%
10^-7M test compound
  % Inhibition 10^−7M: 1.8%

From patent publication US20080200473A1, “Imidazo [1,2-a]Pyridine Compounds, Compositions, Uses and Methods Thereto” (Ferrer Internacional, S.A., priority 2004, published 2008)
